# Laboratory results as given in paper PMC5401710 (International Journal of Peptide Research and Therapeutics, 2016).
# For part of these data: Some peptides are written in HELM: one residue between dots, names in brackets for other building blocks, links after the first $.
# Experiments:
# Conditions in all cases: whole synthesis
# [1] = general procedure: Fmoc solid-phase peptide synthesis; 1,5-diaminopentanetrityl resin; TBTU/HOBt
# [2] = general procedure: Fmoc solid-phase peptide synthesis; Rink amide resin; TBTU/HOBt
# [3] = general procedure: Fmoc solid-phase peptide synthesis; 2-chlorotrityl chloride resin; TBTU/HOBt
Substance,isolated yield [1],isolated yield [2],isolated yield [3]
PEPTIDE1{A.F.K.[EACA].[NH(CH2)5NH2]}$$$$V2.0,37%,,
H–Ala–Phe–Lys–EACA–NH2,,50%,
H–D-Ala–Phe–Lys–EACA–NH2,,48%,
PEPTIDE1{[dA].F.K.[EACA]}$$$$V2.0,,,49%
PEPTIDE1{[dA].F.K.[EACA].[NH(CH2)5NH2]}$$$$V2.0,38%,,
PEPTIDE1{A.F.K.[EACA]}$$$$V2.0,,,47%
